Source: patent publication US6743604
These are yes or no findings as the source states them, for the method shown. Some results given as binding are weak or reduced against the parent protein; the word gives no strength.

Protein sequences, listed by entry. Tags and fused reporters are not part of them. Lines headed by an entry give the natural chain unless they say otherwise; changes in a name come on top. Residues count along the entry.
UniProt P24394: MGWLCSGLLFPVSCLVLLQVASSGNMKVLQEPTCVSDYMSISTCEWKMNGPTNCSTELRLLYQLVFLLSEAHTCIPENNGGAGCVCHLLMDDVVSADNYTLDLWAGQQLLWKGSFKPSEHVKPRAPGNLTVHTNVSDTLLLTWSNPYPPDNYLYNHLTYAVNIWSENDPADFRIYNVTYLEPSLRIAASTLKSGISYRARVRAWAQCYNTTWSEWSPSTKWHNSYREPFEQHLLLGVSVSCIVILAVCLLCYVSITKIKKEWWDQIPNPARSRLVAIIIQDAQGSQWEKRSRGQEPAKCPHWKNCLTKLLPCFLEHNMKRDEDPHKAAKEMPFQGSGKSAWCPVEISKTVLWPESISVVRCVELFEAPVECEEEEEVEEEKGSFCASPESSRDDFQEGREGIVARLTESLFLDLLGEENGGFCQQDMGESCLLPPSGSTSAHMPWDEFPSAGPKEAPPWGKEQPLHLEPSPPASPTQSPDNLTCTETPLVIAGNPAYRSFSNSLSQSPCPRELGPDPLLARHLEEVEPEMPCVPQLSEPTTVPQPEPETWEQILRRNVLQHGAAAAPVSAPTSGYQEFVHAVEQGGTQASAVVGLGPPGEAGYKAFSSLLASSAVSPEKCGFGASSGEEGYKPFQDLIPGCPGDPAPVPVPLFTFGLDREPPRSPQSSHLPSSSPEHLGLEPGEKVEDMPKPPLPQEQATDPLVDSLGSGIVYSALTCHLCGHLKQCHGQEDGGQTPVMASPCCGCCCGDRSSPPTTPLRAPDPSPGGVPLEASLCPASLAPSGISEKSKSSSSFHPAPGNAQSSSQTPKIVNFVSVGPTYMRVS
UniProt P35225, residues 35-146: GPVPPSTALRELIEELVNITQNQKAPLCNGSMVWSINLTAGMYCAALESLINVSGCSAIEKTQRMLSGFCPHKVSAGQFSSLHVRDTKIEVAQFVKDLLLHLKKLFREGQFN

How the values were obtained:
[1] = molecular target: T1, human IL-13 receptor α1 chain (cDNA clone 3.1) expressed on transiently transfected COS7 cells (human) (UniProt P78552); experiment: binding to Cos transfectants
T1 sequence: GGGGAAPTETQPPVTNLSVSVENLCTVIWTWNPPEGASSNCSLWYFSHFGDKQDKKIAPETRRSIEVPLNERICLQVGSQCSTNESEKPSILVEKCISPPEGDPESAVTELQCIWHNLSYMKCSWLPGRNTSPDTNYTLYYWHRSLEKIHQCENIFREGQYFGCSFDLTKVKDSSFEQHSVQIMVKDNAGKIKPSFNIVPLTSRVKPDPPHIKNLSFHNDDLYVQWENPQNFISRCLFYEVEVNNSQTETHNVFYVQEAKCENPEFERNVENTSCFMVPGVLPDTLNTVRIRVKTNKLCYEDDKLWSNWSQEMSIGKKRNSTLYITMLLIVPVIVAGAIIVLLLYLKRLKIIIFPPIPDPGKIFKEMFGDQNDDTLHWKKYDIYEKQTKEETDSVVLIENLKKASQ

[2] = molecular target: human IL13Rα1 co-expressed with human IL4Rα on transiently co-transfected COS7 cells (heterologous IL4/IL13R complex) (human) (UniProt P24394); experiment: binding to Cos co-transfectants
[3] = molecular target: human IL13Rα1 co-expressed with human IL4Rα on transiently co-transfected COS7 cells (heterologous IL4/IL13R complex) (human) (UniProt P24394); experiment: radioligand binding on co-transfected COS7 cells
[4] = molecular target: T1, human IL-13 receptor α1 chain (cDNA clone 3.1) expressed on transiently transfected COS7 cells (human); experiment: radioligand binding on COS7 cells transfected with IL13Rα1
[5] = molecular target: T1, human IL-13 receptor α1 chain (cDNA clone 3.1) expressed on transiently transfected COS7 cells (human); experiment: radioligand affinity cross-linking, SDS-PAGE, COS7 transfectants

binding [1]: binds
binding [2]: binds
binding [3]: binds
binding [4]: binds
binding [5]: binds
Substance: human IL-13 (from UniProt P35225 35-146) (ligand)
